From the supplement of paper PMC4604168 (melanoma cell lines) come the findings set out here.

SMILES strings stand for the structures. The list shows a part of the results. Single values are uncertain, as repeats are few or missing.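 Cells were imaged in 1,536-well plates, and nuclei stained with an antibody against cleaved PARP were counted against all DNA-stained nuclei to give the apoptosis fraction. Screening doses were chosen to leave most cells alive, and resting and induced cleaved-PARP levels differ strongly between cell lines.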

Among the test systems are 501Mel; A101D; A2058; A375; C32; CBRC013; CBRC014; CBRC016; CBRC017; CBRC034; COLO792; COLO800; COLO829; G361; IPC-298; IST-MEL1; LB2518-MEL; LOXIMVI.
Common to all, as to assay: cleaved PARP positive nuclei fraction relative to DMSO control; melanoma cells; higher = more apoptosis
What all share (details): library dose: low library concentration; 72 h

As to `Cn1nnc2c(C(N)=O)ncn2c1=O` [temozolomide] + COc1cc(N2CCC(N3CCN(C)CC3)CC2)ccc1Nc1ncc(Cl)c(Nc2ccccc2S(=O)(=O)C(C)C)n1 [NVP-TAE684] (first compound 2 µM, partner dose 0.08 µM), the “cleaved PARP positive nuclei fraction” value was 68.1% in the experiment with 501Mel; 65.7% with A101D; 375% with A2058; 255% with A375; 92% in the experiment on C32; 95.8% in the experiment with CBRC013. Further, the “cleaved PARP positive nuclei fraction” value came to 103% in the experiment with CBRC014; 60.9% with CBRC016; 82.5% with CBRC017; 78.1% with CBRC034; 92.2% in the experiment with COLO792; 143% with COLO800. For the same compound, the “cleaved PARP positive nuclei fraction” value was determined as 163% in the experiment on COLO829; 137% in the experiment with G361; 32% in the experiment on IPC-298; 200% in the experiment with IST-MEL1; 69.2% in the experiment on LB2518-MEL; 55.3% in the experiment on LOXIMVI.

Turning to `Nc1cccc2c1CN(C1CCC(=O)NC1=O)C2=O` (stereo not given) [lenalidomide] + Cn1cc(/C=C2\C(=O)Nc3cccnc32)c2ccccc21 [GW441756] (first compound 1 µM, partner dose 0.4 µM), the “cleaved PARP positive nuclei fraction” value in the experiment on 501Mel was 69.5%; in the experiment with A101D it was 119%; in the experiment on A2058, 68.5%; in the experiment on A375, 302%; with C32, 121%; with CBRC013, 104%. The “cleaved PARP positive nuclei fraction” value with CBRC014 is 98.8%; in the experiment on CBRC016 (line from a melanoma biopsy) it was 133%; in the experiment on CBRC017 (line from a melanoma biopsy), 168%; with CBRC034 it was 45.3%; with COLO792 it was 147%; in the experiment with COLO800 it was 111%. The “cleaved PARP positive nuclei fraction” value with COLO829 stood at 115%; in the experiment with G361 it was 125%; with IPC-298, 157%; in the experiment on IST-MEL1 it was 90.9%; in the experiment with LB2518-MEL, 154%; with LOXIMVI, 145%.

On to `C[C@@H]1CCN(C(=O)CC#N)C[C@@H]1N(C)c1ncnc2[nH]ccc12` + O=C1NC(=O)/C(=C/c2ccc(-c3ccc(F)cc3O)o2)S1 [AS252424] (first compound 1 µM, partner dose 1 µM), for which the “cleaved PARP positive nuclei fraction” value in the experiment with 501Mel is 148%; with A101D, 67.7%; with A2058, 100%; in the experiment with A375 it was 105%; with C32 it was 137%; in the experiment with CBRC013, 129%. Moreover, the “cleaved PARP positive nuclei fraction” value with CBRC014 was 73.4%; with CBRC016, 41.4%; in the experiment with CBRC017 it was 160%; in the experiment with CBRC034 it was 120%; in the experiment on COLO792, 34.2%; in the experiment on COLO800, 135%. In addition, the “cleaved PARP positive nuclei fraction” value in the experiment on COLO829 turned out to be 60.7%; in the experiment on G361 it was 151%; in the experiment with IPC-298 it was 17.6%; in the experiment with IST-MEL1, 110%; in the experiment on LB2518-MEL it was 53.9%; in the experiment with LOXIMVI it was 104%.

Consider `NC(=O)Nc1cc(-c2cccc(F)c2)sc1C(=O)N[C@H]1CCCNC1` + COc1ccc(-c2ccc3c(N4CCOCC4)nc(N4C[C@@H](C)O[C@@H](C)C4)nc3n2)cc1CO [KU0063794] (first compound 0.02 µM, partner dose 0.02 µM), for which the “cleaved PARP positive nuclei fraction” value turned out to be 79% with 501Mel; 222% with A101D; 116% in the experiment with A2058; 689% in the experiment on A375; 91.2% in the experiment on C32; 88.4% in the experiment on CBRC013 (line from a melanoma biopsy). Also, the “cleaved PARP positive nuclei fraction” value came to 234% in the experiment with CBRC014; 26.9% with CBRC016; 94.1% in the experiment on CBRC017; 42% in the experiment with CBRC034; 145% in the experiment on COLO792; 85% with COLO800. Further, the “cleaved PARP positive nuclei fraction” value was 111% with COLO829; 58.6% with G361; 45.3% in the experiment with IPC-298; 41.1% with IST-MEL1; 72.8% with LB2518-MEL; 66.5% in the experiment with LOXIMVI.

Regarding `C=CCn1c(=O)c2cnc(Nc3ccc(N4CCN(C)CC4)cc3)nc2n1-c1cccc(C(C)(C)O)n1` + COc1cc2ncnc(Nc3ccc(Oc4ccccc4)cc3)c2cc1OC [SrcI1] (first compound 0.02 µM, partner dose 2 µM), the “cleaved PARP positive nuclei fraction” value with 501Mel is 147%; in the experiment with A101D, 296%; in the experiment with A2058, 71.9%; in the experiment on A375, 69.1%; with C32, 51%; in the experiment with CBRC013, 92.6%. For the same compound, the “cleaved PARP positive nuclei fraction” value was 324% in the experiment on CBRC014 (line from a melanoma biopsy); 169% in the experiment on CBRC016; 96.5% in the experiment with CBRC017; 94.6% in the experiment on CBRC034 (line from a melanoma biopsy); 27.5% in the experiment with COLO792; 87.4% with COLO800. Besides, the “cleaved PARP positive nuclei fraction” value was determined as 114% with COLO829; 65.5% in the experiment on G361; 90.5% in the experiment with IPC-298; 29.2% in the experiment on IST-MEL1; 76% in the experiment on LB2518-MEL; 34.9% in the experiment with LOXIMVI.
